According to the M2OR odorant receptor database:
Where a chain is given by its changes, count along the chain named. Only a part is listed here, and it is no random draw. The calls were merged from several studies; some rest on single wells. Some of the results follow.

Chains of the proteins cited; added tags and fusions are not shown. Chains listed by the source or under a name are the forms on record and can include a tag or linker.
O4F17, as listed by the source: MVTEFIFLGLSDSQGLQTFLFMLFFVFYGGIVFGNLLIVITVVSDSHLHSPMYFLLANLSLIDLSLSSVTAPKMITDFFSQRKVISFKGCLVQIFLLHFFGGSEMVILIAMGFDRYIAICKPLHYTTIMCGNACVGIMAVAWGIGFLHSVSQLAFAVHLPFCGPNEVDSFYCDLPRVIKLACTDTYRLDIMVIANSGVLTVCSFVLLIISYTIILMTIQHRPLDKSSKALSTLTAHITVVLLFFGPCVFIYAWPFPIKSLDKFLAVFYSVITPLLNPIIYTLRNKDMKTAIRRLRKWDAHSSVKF
O4C46, as listed by the source: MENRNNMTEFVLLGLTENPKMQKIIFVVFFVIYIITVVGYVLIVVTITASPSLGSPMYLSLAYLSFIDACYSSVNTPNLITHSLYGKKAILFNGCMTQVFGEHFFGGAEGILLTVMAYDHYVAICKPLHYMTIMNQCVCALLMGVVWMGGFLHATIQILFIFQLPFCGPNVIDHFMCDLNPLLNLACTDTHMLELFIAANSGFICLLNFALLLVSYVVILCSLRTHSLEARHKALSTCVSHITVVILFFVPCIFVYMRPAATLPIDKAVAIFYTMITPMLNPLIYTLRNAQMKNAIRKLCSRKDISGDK

Tests used:
Conditions in all cases: stereoisomer not certain
O4A47 = system: T1, O4A47
T1 sequence (whole entry): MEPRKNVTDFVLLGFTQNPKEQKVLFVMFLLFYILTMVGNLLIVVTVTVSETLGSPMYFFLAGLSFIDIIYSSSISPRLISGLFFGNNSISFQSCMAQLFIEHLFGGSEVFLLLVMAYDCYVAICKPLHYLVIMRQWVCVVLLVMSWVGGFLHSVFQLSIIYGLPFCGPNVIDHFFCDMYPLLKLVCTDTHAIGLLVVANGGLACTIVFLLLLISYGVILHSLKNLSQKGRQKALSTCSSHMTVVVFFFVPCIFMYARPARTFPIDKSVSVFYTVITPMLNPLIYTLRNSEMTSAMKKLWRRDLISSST
Summary of the method: (§1)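 Values were gathered from published papers (main text and supplementary material), with extra details requested from the original authors when needed, and checked for typos and inconsistencies. Each receptor–molecule pair is called responsive (active) if the original authors judged the measured signal statistically different from baseline, and non-responsive (inactive) otherwise. Assay methods varied by source, often transient mammalian cell-line luciferase assays. Recorded details include cell line, G-protein, co-transfected protein and tags.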

O4C46 = system: O4C46
Summary of the method: as §1

O4F17 [1] = system: T2, O4F17
T2 sequence (whole entry): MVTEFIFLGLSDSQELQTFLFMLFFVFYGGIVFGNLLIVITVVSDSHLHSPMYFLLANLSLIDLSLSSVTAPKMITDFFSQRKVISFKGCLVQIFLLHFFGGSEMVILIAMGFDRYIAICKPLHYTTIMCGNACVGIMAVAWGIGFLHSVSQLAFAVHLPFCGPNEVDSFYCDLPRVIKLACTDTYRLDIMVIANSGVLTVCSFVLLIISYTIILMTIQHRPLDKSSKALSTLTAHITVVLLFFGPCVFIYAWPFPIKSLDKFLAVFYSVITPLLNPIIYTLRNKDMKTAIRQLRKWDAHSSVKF
Summary of the method: as §1

O4F17 [2] = system: T3, O4F17; remark: listed apart in the source
T3 sequence (whole entry): T2 sequence (whole entry) with E15G, Q293R
Summary of the method: as §1

O4F21 = system: T4, O4F21
T4 sequence (whole entry): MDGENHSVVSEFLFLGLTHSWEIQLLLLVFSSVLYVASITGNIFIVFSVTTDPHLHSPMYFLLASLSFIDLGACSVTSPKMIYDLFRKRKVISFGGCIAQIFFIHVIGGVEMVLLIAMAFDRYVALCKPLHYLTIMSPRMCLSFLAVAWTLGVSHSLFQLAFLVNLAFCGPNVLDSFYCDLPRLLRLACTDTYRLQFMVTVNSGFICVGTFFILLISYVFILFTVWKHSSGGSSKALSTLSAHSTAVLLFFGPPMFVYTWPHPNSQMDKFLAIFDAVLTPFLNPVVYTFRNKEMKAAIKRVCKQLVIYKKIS
Summary of the method: as §1

O51A4 = system: T5, O51A4
T5 sequence (whole entry): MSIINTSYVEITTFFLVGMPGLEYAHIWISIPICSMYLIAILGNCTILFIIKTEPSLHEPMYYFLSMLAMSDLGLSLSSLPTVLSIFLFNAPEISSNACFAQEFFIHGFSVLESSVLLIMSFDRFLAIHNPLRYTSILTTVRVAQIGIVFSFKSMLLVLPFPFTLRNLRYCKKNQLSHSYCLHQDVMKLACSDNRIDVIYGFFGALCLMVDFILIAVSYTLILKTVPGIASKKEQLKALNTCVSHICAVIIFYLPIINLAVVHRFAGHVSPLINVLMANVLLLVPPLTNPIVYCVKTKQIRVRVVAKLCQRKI
Summary of the method: as §1

O51B4 = system: T6, O51B4
T6 sequence (whole entry): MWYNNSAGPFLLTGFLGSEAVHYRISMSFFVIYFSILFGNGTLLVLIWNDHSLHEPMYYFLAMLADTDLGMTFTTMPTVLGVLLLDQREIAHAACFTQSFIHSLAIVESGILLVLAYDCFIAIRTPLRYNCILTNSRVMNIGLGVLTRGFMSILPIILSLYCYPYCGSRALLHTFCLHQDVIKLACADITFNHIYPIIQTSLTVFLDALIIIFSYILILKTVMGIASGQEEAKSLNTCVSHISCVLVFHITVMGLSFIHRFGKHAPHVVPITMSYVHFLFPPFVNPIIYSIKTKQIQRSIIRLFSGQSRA
Summary of the method: as §1

O51B5 = system: T7, O51B5
T7 sequence (whole entry): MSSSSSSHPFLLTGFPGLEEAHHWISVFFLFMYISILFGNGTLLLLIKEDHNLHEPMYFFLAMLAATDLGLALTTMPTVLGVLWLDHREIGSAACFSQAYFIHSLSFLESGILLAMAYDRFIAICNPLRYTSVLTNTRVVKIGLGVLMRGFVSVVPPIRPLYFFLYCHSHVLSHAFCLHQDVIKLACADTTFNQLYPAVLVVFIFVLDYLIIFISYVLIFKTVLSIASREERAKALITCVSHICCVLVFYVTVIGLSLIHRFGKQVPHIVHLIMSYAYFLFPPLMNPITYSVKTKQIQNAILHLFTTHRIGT
Summary of the method: as §1

O51B6 = system: T8, O51B6
T8 sequence (whole entry): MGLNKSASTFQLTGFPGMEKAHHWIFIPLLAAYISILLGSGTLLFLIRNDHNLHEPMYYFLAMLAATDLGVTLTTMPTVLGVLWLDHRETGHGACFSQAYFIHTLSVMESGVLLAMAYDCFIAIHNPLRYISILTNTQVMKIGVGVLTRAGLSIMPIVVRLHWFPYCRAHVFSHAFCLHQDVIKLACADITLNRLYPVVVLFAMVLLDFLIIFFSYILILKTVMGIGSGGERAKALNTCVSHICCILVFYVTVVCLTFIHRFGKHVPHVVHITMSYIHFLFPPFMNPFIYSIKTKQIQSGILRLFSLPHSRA
Summary of the method: as §1

O51E1 = system: T9, O51E1
T9 sequence (whole entry): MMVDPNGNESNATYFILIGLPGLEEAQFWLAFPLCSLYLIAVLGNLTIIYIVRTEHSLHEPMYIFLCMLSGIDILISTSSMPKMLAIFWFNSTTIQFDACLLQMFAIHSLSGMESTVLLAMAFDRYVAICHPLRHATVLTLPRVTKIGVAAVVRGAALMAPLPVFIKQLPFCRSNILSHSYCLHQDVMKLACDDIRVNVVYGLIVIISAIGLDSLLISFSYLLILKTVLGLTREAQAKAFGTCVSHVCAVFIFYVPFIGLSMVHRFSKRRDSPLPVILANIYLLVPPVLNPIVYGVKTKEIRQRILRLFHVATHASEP
Summary of the method: as §1

Measured: odorant receptor agonist call

CCC(C)=O
active: O4F17 [2]
inactive: all other assays above

CCCCOC(C)=O
active: O51B4
inactive: all other assays above

CS
inactive: all assays above
